{"source": "paper PMC5466598", "about": "(Scientific Reports, 2017)", "assay": "peptide synthesis", "conditions": "conjugation step, TFA salt", "note": "Some peptides are written in HELM: one residue between dots, names in brackets for other building blocks, links after the first $.", "data": [{"substance": "PEPTIDE1{[FITC5].[PEG4].E.[PEG2trz]}|PEPTIDE2{R.G.D.[dF].K}|PEPTIDE3{R.G.D.[dF].K}|PEPTIDE4{[PEG2trz]}$PEPTIDE2,PEPTIDE2,1:R1-5:R2|PEPTIDE3,PEPTIDE3,1:R1-5:R2|PEPTIDE1,PEPTIDE2,4:R2-5:R3|PEPTIDE1,PEPTIDE4,3:R3-1:R1|PEPTIDE4,PEPTIDE3,1:R2-5:R3$$$V2.0", "values": [{"measurement": "conjugation yield", "value": 71.9, "unit": "%"}, {"measurement": "final purity (method not given)", "value": 97.7, "unit": "%"}]}]}
